# PubChem BioAssay AID1224830 – NIAID | 2016
# Test: 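Host factors that control LPS-induced TNF expression in human macrophages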 (primary screen)
# Cells: human THP-1 monocytic leukaemia cells, TNF dual-luciferase reporter clone, PMA-differentiated to macrophage-like cells
# Knock-down reagent: siRNA pool against human genes, 50 nM
# Duration: LPS for 4 h, given about 3 days after siRNA transfection
# Treatment: bacterial LPS (TLR4 ligand), 10 ng/ml
# Measurement: 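TNF firefly reporter luminescence divided by renilla, normalised to the plate median, then turned into a robust z-score for each replicate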
# Direction: TNF reporter robust z-score: higher = stronger TNF reporter response to LPS
# Hit rule: 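Each well counts as active if its z-score is over 2.8 or under -1.5; controls are left without a call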
# Shown is a random part of about 18,000 deposited reagents. About 2,900 of them (16%) count as active. 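Calls are made per well; low scores hint the gene aids the LPS response, high scores that it dampens it.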 Repeated entries: four replicate wells of each siRNA pool.
gene knocked down,TNF reporter robust z-score,Call
C3AR1 (GeneID 719),-0.31,inactive
C3AR1 (GeneID 719),-0.64,inactive
C3AR1 (GeneID 719),1.32,inactive
C3AR1 (GeneID 719),2.49,inactive
SNCB (GeneID 6620),-0.88,inactive
SNCB (GeneID 6620),-0.02,inactive
SNCB (GeneID 6620),-0.18,inactive
SNCB (GeneID 6620),1.48,inactive
GP9 (GeneID 2815),-0.51,inactive
GP9 (GeneID 2815),-0.11,inactive
GP9 (GeneID 2815),-0.71,inactive
GP9 (GeneID 2815),-0.76,inactive
CLEC17A (GeneID 388512),0.77,inactive
CLEC17A (GeneID 388512),1.01,inactive
CLEC17A (GeneID 388512),1.48,inactive
CLEC17A (GeneID 388512),0.5,inactive
SF3B1 (GeneID 23451),-1.57,active
SF3B1 (GeneID 23451),-1.38,inactive
SF3B1 (GeneID 23451),-1.81,active
SF3B1 (GeneID 23451),-1.45,inactive
RAD17 (GeneID 5884),-0.17,inactive
RAD17 (GeneID 5884),0.17,inactive
RAD17 (GeneID 5884),-0.06,inactive
RAD17 (GeneID 5884),0.22,inactive
RPL10 (GeneID 6134),-0.5,inactive
RPL10 (GeneID 6134),-0.01,inactive
RPL10 (GeneID 6134),-0.44,inactive
RPL10 (GeneID 6134),-0.31,inactive
OTOR (GeneID 56914),-1.19,inactive
OTOR (GeneID 56914),-1.08,inactive
OTOR (GeneID 56914),-1.61,active
OTOR (GeneID 56914),-1.69,active
C20orf141 (GeneID 128653),1.12,inactive
C20orf141 (GeneID 128653),1.81,inactive
C20orf141 (GeneID 128653),0.61,inactive
C20orf141 (GeneID 128653),2.51,inactive
FASLG (GeneID 356),-0.39,inactive
FASLG (GeneID 356),0.14,inactive
FASLG (GeneID 356),-0.22,inactive
FASLG (GeneID 356),-0.81,inactive
CCDC149 (GeneID 91050),2.5,inactive
CCDC149 (GeneID 91050),1.71,inactive
CCDC149 (GeneID 91050),1.23,inactive
CCDC149 (GeneID 91050),1.04,inactive
CRHR1 (GeneID 1394),0.67,inactive
CRHR1 (GeneID 1394),-0.11,inactive
CRHR1 (GeneID 1394),0.01,inactive
CRHR1 (GeneID 1394),1.61,inactive
ELN (GeneID 2006),2.48,inactive
ELN (GeneID 2006),0.15,inactive
ELN (GeneID 2006),-0.93,inactive
ELN (GeneID 2006),0.01,inactive
PDE4DIP (GeneID 9659),0.93,inactive
PDE4DIP (GeneID 9659),2.12,inactive
PDE4DIP (GeneID 9659),-0.89,inactive
PDE4DIP (GeneID 9659),-0.24,inactive
MMP16 (GeneID 4325),0.28,inactive
MMP16 (GeneID 4325),1.65,inactive
MMP16 (GeneID 4325),0.68,inactive
MMP16 (GeneID 4325),-0.07,inactive
IGFL1 (GeneID 374918),-0.04,inactive
IGFL1 (GeneID 374918),1.13,inactive
IGFL1 (GeneID 374918),1.75,inactive
GSC (GeneID 145258),-0.65,inactive
GSC (GeneID 145258),1.01,inactive
GSC (GeneID 145258),0.48,inactive
GSC (GeneID 145258),0.49,inactive
CCS (GeneID 9973),-0.26,inactive
CCS (GeneID 9973),-0.76,inactive
CCS (GeneID 9973),-1.43,inactive
CCS (GeneID 9973),-1.27,inactive
ZNF136 (GeneID 7695),-0.38,inactive
ZNF136 (GeneID 7695),0.63,inactive
ZNF136 (GeneID 7695),0.11,inactive
ZNF136 (GeneID 7695),0.2,inactive
ZFTRAF1 (GeneID 50626),2.15,inactive
ZFTRAF1 (GeneID 50626),2.21,inactive
ZFTRAF1 (GeneID 50626),0.95,inactive
ZFTRAF1 (GeneID 50626),1.29,inactive
SGTA (GeneID 6449),-1.17,inactive
SGTA (GeneID 6449),0.97,inactive
SGTA (GeneID 6449),-0.64,inactive
SGTA (GeneID 6449),-1.4,inactive
CFAP95 (GeneID 138255),-1.87,active
CFAP95 (GeneID 138255),1.03,inactive
CFAP95 (GeneID 138255),0.18,inactive
CFAP95 (GeneID 138255),0.69,inactive
NME8 (GeneID 51314),0.02,inactive
NME8 (GeneID 51314),0.43,inactive
NME8 (GeneID 51314),-0.99,inactive
NME8 (GeneID 51314),0.59,inactive
POLQ (GeneID 10721),0.2,inactive
POLQ (GeneID 10721),-0.26,inactive
POLQ (GeneID 10721),-0.84,inactive
POLQ (GeneID 10721),0.78,inactive
GRSF1 (GeneID 2926),-0.73,inactive
GRSF1 (GeneID 2926),-0.46,inactive
GRSF1 (GeneID 2926),-0.65,inactive
GRSF1 (GeneID 2926),-0.43,inactive
TTLL9 (GeneID 164395),0.41,inactive
TTLL9 (GeneID 164395),0.04,inactive
TTLL9 (GeneID 164395),-0.9,inactive
TTLL9 (GeneID 164395),-0.47,inactive
LLGL1 (GeneID 3996),-0.99,inactive
LLGL1 (GeneID 3996),-1,inactive
LLGL1 (GeneID 3996),-1.02,inactive
LLGL1 (GeneID 3996),0.3,inactive
UBE2Q2 (GeneID 92912),-0.93,inactive
UBE2Q2 (GeneID 92912),-0.4,inactive
UBE2Q2 (GeneID 92912),0.26,inactive
UBE2Q2 (GeneID 92912),-0.13,inactive
